Results reported in the supplement of paper PMC10849652.
The list shows a part of the results.

By UniProt entry, the sequences of proteins in these tests, tags left out. Where a name states a change or a piece, a line headed by the entry shows the natural chain unless it says otherwise.
UniProt Q9UIV1, whole entry, looked up: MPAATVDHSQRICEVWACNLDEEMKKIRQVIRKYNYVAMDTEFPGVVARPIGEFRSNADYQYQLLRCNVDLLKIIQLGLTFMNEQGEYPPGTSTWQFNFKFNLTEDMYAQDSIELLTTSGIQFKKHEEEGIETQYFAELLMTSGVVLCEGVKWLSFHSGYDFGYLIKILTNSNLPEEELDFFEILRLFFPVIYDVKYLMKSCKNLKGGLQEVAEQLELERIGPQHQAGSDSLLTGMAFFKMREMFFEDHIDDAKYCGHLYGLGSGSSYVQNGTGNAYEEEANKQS
UniProt Q9NWW5: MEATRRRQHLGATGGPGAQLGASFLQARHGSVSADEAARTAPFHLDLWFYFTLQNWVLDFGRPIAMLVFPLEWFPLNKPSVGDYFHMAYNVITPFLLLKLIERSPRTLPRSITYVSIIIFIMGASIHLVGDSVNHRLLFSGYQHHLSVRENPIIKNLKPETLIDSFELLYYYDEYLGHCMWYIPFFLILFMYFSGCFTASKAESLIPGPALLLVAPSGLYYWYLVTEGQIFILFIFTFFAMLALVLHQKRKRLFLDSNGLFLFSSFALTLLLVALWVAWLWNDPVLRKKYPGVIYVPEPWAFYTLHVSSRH
UniProt Q8N5K1: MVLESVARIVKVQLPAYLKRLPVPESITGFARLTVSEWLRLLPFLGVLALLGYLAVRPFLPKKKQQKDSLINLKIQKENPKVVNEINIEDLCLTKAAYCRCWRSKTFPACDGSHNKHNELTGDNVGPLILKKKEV
UniProt Q9P2E5: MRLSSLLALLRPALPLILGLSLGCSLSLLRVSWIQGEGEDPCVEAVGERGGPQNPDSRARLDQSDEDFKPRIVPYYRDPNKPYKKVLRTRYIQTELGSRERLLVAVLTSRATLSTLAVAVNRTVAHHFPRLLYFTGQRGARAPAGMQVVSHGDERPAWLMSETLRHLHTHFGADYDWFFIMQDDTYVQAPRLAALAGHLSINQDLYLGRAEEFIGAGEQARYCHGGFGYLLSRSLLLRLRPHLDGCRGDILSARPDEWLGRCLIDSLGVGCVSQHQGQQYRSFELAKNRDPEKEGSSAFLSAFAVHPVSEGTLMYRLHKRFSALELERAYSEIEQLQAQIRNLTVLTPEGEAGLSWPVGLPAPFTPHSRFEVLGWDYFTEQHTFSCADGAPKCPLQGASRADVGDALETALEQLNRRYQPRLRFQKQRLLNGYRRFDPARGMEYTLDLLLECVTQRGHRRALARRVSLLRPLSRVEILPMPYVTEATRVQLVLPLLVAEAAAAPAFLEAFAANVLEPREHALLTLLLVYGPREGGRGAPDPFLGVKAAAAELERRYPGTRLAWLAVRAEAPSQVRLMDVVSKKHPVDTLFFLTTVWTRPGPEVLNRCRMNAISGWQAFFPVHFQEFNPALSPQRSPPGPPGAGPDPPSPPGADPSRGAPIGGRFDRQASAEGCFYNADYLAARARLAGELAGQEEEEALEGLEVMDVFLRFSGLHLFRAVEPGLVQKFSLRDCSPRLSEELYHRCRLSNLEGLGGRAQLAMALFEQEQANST
UniProt P09543: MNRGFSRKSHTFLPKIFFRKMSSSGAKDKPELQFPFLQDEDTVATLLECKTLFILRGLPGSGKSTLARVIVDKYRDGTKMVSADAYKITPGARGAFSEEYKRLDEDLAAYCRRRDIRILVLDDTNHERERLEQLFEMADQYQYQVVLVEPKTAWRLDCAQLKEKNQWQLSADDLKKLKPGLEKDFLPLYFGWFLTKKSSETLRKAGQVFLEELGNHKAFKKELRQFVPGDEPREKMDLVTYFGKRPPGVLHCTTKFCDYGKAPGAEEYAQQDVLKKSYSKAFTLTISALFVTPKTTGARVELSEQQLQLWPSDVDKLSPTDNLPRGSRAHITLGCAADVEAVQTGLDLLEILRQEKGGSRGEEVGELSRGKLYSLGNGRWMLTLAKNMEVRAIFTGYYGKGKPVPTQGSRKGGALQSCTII
UniProt P51790: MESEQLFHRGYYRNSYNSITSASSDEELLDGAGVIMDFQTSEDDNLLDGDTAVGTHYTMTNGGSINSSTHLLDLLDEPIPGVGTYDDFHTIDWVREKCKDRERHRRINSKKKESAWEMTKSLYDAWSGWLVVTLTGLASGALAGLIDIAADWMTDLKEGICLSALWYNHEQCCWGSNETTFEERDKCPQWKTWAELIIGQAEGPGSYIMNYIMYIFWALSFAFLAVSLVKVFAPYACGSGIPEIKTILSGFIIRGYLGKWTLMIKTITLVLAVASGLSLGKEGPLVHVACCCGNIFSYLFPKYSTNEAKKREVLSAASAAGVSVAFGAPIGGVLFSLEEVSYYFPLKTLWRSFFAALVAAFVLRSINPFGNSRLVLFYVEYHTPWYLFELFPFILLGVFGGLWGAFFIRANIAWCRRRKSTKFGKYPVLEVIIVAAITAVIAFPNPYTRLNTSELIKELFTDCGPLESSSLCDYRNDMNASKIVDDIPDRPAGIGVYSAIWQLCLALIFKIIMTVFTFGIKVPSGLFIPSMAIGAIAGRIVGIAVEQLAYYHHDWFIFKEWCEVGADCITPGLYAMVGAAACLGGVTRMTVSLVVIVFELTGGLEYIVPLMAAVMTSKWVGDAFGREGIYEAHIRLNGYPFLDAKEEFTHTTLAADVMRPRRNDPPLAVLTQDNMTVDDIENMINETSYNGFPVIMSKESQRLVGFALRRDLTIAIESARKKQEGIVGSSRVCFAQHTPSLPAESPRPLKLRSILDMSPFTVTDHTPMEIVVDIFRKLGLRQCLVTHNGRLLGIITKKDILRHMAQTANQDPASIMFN
UniProt Q14677: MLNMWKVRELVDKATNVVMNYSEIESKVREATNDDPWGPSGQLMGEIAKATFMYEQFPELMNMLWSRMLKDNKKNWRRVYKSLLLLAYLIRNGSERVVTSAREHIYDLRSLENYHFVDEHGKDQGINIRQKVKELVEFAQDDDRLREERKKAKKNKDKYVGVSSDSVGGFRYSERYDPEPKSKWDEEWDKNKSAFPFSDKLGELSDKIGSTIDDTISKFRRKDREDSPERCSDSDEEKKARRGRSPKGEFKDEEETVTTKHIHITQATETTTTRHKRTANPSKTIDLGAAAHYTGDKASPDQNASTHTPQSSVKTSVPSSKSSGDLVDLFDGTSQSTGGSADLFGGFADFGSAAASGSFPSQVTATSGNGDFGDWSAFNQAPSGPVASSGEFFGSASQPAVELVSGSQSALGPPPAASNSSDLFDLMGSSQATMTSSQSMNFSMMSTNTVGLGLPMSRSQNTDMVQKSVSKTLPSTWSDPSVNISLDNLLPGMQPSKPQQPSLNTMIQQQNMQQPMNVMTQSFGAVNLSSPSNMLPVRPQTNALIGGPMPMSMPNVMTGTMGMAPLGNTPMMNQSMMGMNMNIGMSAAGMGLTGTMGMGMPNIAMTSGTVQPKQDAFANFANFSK
UniProt G5E9Z2: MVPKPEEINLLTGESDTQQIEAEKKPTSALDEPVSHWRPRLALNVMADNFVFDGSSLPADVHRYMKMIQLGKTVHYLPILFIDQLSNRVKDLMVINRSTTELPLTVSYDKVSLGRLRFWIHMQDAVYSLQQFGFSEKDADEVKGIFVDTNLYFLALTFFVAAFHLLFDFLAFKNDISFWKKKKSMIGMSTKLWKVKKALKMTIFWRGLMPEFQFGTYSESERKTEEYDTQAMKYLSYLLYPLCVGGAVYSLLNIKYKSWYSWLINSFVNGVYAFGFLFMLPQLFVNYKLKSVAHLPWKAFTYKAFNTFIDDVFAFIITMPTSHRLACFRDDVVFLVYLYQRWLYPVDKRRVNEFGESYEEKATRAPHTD
UniProt O43405: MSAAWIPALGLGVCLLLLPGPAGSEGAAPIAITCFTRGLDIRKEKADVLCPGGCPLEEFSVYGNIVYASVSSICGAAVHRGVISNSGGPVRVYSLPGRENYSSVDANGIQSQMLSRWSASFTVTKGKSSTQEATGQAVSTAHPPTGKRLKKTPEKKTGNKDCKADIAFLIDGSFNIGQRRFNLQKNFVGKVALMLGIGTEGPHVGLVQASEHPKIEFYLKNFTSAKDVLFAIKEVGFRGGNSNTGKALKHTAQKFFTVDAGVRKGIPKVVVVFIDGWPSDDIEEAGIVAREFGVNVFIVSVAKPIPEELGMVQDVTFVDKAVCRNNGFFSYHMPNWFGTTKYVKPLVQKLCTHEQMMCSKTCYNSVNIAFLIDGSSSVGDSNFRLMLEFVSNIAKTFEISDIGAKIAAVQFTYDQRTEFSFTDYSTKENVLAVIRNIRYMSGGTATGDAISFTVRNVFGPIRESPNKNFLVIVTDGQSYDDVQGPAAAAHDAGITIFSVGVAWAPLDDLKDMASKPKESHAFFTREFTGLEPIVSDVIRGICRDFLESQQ
UniProt Q9UHD1: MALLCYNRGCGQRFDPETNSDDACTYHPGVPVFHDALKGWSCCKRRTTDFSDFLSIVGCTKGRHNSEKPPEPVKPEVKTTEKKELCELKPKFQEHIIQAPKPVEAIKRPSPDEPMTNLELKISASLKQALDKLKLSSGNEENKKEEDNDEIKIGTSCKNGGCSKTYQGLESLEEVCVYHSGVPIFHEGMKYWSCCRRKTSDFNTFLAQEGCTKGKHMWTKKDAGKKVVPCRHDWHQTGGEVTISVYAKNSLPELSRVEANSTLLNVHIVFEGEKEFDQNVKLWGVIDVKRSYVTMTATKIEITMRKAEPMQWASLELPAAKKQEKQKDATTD
UniProt Q9NRB3: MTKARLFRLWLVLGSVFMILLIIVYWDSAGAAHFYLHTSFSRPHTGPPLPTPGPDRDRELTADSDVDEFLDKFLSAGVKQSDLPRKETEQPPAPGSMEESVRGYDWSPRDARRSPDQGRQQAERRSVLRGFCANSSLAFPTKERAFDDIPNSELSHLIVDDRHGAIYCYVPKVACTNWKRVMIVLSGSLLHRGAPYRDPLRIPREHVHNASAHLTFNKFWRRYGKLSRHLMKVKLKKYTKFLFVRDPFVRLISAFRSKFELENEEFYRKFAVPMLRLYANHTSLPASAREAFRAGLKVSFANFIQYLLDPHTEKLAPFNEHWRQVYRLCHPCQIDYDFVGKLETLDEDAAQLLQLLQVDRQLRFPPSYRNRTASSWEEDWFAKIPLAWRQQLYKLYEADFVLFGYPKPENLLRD
UniProt Q8NCH0: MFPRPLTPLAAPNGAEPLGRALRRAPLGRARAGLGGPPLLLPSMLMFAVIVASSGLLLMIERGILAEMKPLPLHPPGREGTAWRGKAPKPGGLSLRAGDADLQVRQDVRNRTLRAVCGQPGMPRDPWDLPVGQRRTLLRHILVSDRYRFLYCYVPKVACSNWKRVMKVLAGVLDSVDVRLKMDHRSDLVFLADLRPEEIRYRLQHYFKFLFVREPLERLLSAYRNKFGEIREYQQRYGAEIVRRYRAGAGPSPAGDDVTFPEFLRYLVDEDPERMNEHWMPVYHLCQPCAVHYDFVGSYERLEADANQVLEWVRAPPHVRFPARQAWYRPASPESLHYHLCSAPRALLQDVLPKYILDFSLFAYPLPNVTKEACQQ
UniProt Q6P4Q7: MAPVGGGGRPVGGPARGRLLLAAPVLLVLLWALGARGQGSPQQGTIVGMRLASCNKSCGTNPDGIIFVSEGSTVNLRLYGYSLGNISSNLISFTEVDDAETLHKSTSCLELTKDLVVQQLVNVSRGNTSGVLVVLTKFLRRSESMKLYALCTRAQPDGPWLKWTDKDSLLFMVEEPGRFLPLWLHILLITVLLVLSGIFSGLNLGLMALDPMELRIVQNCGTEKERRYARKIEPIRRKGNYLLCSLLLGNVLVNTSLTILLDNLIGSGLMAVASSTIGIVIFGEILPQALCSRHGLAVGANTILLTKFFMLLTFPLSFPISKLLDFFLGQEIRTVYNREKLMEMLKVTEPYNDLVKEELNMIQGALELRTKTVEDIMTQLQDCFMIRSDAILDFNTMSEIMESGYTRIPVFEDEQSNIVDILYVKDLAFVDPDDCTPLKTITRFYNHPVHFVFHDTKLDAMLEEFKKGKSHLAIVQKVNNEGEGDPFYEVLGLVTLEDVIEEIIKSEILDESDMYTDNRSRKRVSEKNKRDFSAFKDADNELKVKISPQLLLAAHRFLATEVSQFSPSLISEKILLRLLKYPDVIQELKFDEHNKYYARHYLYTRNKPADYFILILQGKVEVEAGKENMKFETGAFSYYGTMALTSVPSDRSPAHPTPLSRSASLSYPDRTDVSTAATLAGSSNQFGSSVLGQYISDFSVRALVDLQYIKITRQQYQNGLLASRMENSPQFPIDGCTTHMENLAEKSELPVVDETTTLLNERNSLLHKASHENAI
UniProt Q9Y2B0: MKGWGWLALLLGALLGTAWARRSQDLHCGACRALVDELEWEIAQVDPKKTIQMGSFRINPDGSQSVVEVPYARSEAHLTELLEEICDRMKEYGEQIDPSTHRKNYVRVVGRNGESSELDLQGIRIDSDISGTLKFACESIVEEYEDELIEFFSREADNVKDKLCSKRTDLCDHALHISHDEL
UniProt P05452, whole entry, looked up: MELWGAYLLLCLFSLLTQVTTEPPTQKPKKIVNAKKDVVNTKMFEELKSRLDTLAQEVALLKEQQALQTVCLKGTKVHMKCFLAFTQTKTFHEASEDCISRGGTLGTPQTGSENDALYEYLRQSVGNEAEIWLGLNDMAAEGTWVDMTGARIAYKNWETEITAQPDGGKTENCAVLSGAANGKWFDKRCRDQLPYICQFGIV

Columns and labels:
Assay in all cases: log2 fold change, soluble protein after heating vs DMSO (PISA); higher = thermal stabilisation; K562 cells, 10 uM, 30 min; active = over 0.2 and 3.5 SD of the protein, either way, in both replicates (recomputed)
[1] = compound: C1=CC=C(C=C1)[C@H](COC2=CC3=C(C=C2)NC(=O)N3)NC(=O)C4=CC=CN(C4=O)CC5=CC(=C(C=C5)F)F
Method in brief: (§1)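 K562 cells at 2×10^6 cells/mL were treated for 30 min with 10 μM compound, and aliquots were heated for 3 min over 48°C-58°C before pooling. Extraction used PBS with 0.5% NP-40 at 4°C, and soluble protein was the supernatant after 21,000xg for 90 min, measured by TMTpro 16plex LC-MS/MS with channel sums equalised. Thermal stability values, relative to control samples and from duplicates, are log2 fold changes.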

[2] = compound: CC1=C(SC2=C1C(=N[C@H](C3=NN=C(N32)C)CC(=O)N)C4=CC=C(C=C4)Cl)C
Method in brief: as §1

[3] = compound: CC1=C2C(=CC=C1)N=C(N(C2=O)C3=CC=CC=C3C)CN4C=NC5=C(N=CN=C54)N
Method in brief: as §1

[4] = compound: Cc1sc2c(c1C)C(c1ccc(Cl)cc1)=N[C@@H](CC(=O)OC(C)(C)C)c1nnc(C)n1-2
Method in brief: as §1

[5] = compound: c1ccc([C@@H]2C[C@H]2NC2CCNCC2)cc1
Method in brief: as §1

Measured: log2 fold change

CLUH (UniProt O75153)
inactive: [1] -0.05 | [2] 0.027 | [3] 0.086 | [4] -0.016 | [5] -0.052

CNOT7 (UniProt Q9UIV1)
inactive: [1] -0.024 | [2] -0.053 | [3] 0.068 | [4] -0.032 | [5] 0.002

CLSPN (UniProt Q9HAW4)
inactive: [1] 0.002 | [2] -0.009 | [3] -0.043 | [4] -0.004 | [5] 0.036

CLN6 (UniProt Q9NWW5)
inactive: [1] -0.021 | [2] 0.309 | [3] -0.15 | [4] 0.161 | [5] -0.113

CNOT4 isoform 9 (UniProt O95628)
inactive: [1] 0.009 | [2] -0.09 | [3] 0.147 | [4] -0.067 | [5] -0.055

CHMP6 (UniProt Q96FZ7)
inactive: [1] -0.012 | [2] -0.031 | [3] 0.024 | [4] -0.015 | [5] -0.06

CNN3 (UniProt Q15417)
inactive: [1] -0.015 | [2] 0.18 | [3] 0.079 | [4] 0.035 | [5] 0.03

CISD2 (UniProt Q8N5K1)
inactive: [1] 0.027 | [2] -0.028 | [3] 0.011 | [4] -0.013 | [5] 0.015

CNPY4 (UniProt Q8N129)
inactive: [1] -0.034 | [2] -0.011 | [3] 0.014 | [4] -0.045 | [5] -0.015

CIZ1 (UniProt Q9ULV3)
inactive: [1] 0.021 | [2] 0.047 | [3] 0.025 | [4] 0.062 | [5] 0.029

CIRBP (UniProt Q14011)
inactive: [1] 0.149 | [2] -0.073 | [3] -0.438 | [4] 0.262 | [5] 0.073

CKB (UniProt P12277)
inactive: [1] -0.1 | [2] 0.01 | [3] 0.038 | [4] -0.022 | [5] -0.118

CHPF2 (UniProt Q9P2E5)
inactive: [1] 0.034 | [2] -0.141 | [3] 0.102 | [4] -0.029 | [5] -0.04

CNOT2 (UniProt Q9NZN8)
inactive: [1] 0.024 | [2] -0.014 | [3] 0.056 | [4] 0.031 | [5] -0.002

CNP (UniProt P09543)
inactive: [1] -0.025 | [2] 0.06 | [3] 0.091 | [4] -0.037 | [5] -0.012

CLN3 (UniProt Q13286)
inactive: [1] 0.005 | [2] -0.032 | [3] -0.315 | [4] -0.119 | [5] 0.087

CLCN3 isoform 2 (UniProt P51790)
inactive: [1] 0.044 | [2] -0.006 | [3] -0.014 | [4] -0.021 | [5] 0.013

CLINT1 isoform 3 (UniProt Q14677)
inactive: [1] 0.053 | [2] -0.039 | [3] -0.01 | [4] 0.046 | [5] 0.044

CNOT10 isoform 6 (UniProt Q9H9A5)
inactive: [1] 0.007 | [2] -0.11 | [3] 0.019 | [4] 0.004 | [5] 0.024

CINP isoform 3 (UniProt Q9BW66)
inactive: [1] 0.087 | [2] 0.012 | [3] -0.001 | [4] 0.016 | [5] 0

CISD3 (UniProt P0C7P0)
inactive: [1] 0.105 | [2] 0.082 | [3] 0.029 | [4] -0.089 | [5] 0.001

CLPTM1L (UniProt G5E9Z2)
inactive: [1] -0.22 | [2] 0.148 | [3] -0.012 | [4] -0.07 | [5] -0.1

COCH (UniProt O43405)
inactive: [1] 0.006 | [2] 0.061 | [3] -0.193 | [4] 0.144 | [5] 0.006

CHORDC1 (UniProt Q9UHD1)
inactive: [1] -0.034 | [2] 0.063 | [3] 0.016 | [4] -0.045 | [5] -0.067

COG3 (UniProt Q96JB2)
inactive: [1] 0.138 | [2] -0.046 | [3] -0.047 | [5] -0.066

CNTNAP4 (UniProt Q9C0A0)
inactive: [1] 0.132 | [2] -0.263 | [3] -0.19 | [4] 0.256 | [5] 0.005

CLN8 (UniProt Q9UBY8)
inactive: [1] 0.121 | [2] 0.042 | [3] -0.067 | [4] 0.043 | [5] -0.057

CLIP1 isoform 1 (UniProt P30622)
inactive: [1] 0.011 | [2] 0.01 | [3] 0.004 | [4] -0.012 | [5] 0.024

COA1 (UniProt Q9GZY4)
inactive: [1] 0.03 | [2] 0.035 | [3] 0.04 | [4] 0.04 | [5] 0.065

CMTR1 (UniProt Q8N1G2)
inactive: [1] -0.008 | [2] 0.033 | [3] 0.07 | [4] -0.009 | [5] -0.04

Two records picked at random from those above, as already listed:
CHMP6 (UniProt Q96FZ7)
inactive: [1] -0.012 | [2] -0.031 | [3] 0.024 | [4] -0.015 | [5] -0.06

CLCN3 isoform 2 (UniProt P51790)
inactive: [1] 0.044 | [2] -0.006 | [3] -0.014 | [4] -0.021 | [5] 0.013

The list continues:

CLIC1 (UniProt O00299)
inactive: [1] -0.008 | [2] 0.028 | [3] 0.026 | [4] 0.014 | [5] -0.017

CLCN7 (UniProt P51798)
inactive: [1] -0.018 | [2] 0.024 | [3] -0.054 | [4] 0.024 | [5] -0.032

CMTM3 (UniProt Q96MX0)
inactive: [1] -0.179 | [2] -0.001 | [3] -0.056 | [4] 0.044 | [5] 0.081

CKMT2 (UniProt P17540)
inactive: [1] 0.084 | [2] 0.037 | [3] 0.091 | [4] 0.056 | [5] 0.027

CIT isoform 4 (UniProt O14578)
inactive: [1] -0.055 | [2] 0.002 | [3] 0.001 | [4] -0.011 | [5] 0.009

CLTB (UniProt P09497)
inactive: [1] 0.021 | [2] -0.01 | [3] -0.016 | [4] -0.01 | [5] -0.02

CHST12 (UniProt Q9NRB3)
inactive: [1] 0.162 | [2] 0.066 | [3] 0.198 | [4] 0.018 | [5] -0.107

CMC1 (UniProt Q7Z7K0)
inactive: [1] -0.062 | [2] -0.123 | [3] -0.225 | [4] 0.115 | [5] 0.147

CHST14 (UniProt Q8NCH0)
inactive: [1] 0.044 | [2] 0.022 | [3] -0.034 | [4] -0.115 | [5] 0.057

CLTA isoform 2 (UniProt P09496)
inactive: [1] 0.025 | [2] -0.057 | [3] -0.025 | [4] 0.006 | [5] 0.053

CNNM4 (UniProt Q6P4Q7)
inactive: [1] -0.047 | [2] 0.056 | [3] 0.015 | [4] -0.132 | [5] 0.001

CIAO2A (UniProt Q9H5X1)
inactive: [1] -0.091 | [2] 0.016 | [3] 0.063 | [4] -0.06 | [5] 0.016

CHP1 (UniProt Q99653)
inactive: [1] 0.022 | [2] 0.016 | [3] -0.058 | [4] -0.057 | [5] -0.015

CLCN3 (UniProt P51790)
inactive: [1] 0.01 | [2] 0.025 | [3] 0.064 | [4] -0.107 | [5] 0.056

CHRAC1 (UniProt Q9NRG0)
inactive: [1] -0.08 | [2] 0.033 | [3] -0.016 | [4] -0.061 | [5] -0.054

CNOT6 (UniProt Q9ULM6)
inactive: [1] -0.093 | [2] 0.098 | [3] 0.102 | [5] 0.03

CNNM3 (UniProt Q8NE01)
inactive: [1] -0.025 | [2] 0.048 | [3] 0.08 | [4] -0.035 | [5] -0.063

CLEC16A (UniProt Q2KHT3)
inactive: [1] 0.021 | [2] -0.014 | [3] -0.014 | [4] 0.025 | [5] 0.028

CLCN6 isoform 5 (UniProt P51797)
inactive: [1] 0.102 | [2] -0.316 | [3] 0.027 | [5] -0.134

CLIP1 isoform 2 (UniProt P30622)
inactive: [1] 0.044 | [2] 0.027 | [3] 0.073 | [5] -0.047

CNPY2 (UniProt Q9Y2B0)
inactive: [1] 0.016 | [2] 0.049 | [3] -0.012 | [4] 0.019 | [5] -0.04

CLEC3B (UniProt P05452)
inactive: [1] -0.101 | [2] -0.086 | [3] -0.027 | [4] -0.077 | [5] 0.21

CNOT3 (UniProt O75175)
inactive: [1] -0.017 | [2] 0.012 | [3] 0.031 | [4] -0.027 | [5] 0.011
